This passage reports binding results from PMC6731319.

Results are given in words; binding and its absence hold for the method and conditions named.

For the assay, the target named is MBP-HJURP^541–748 (human) (UniProt Q8NCD3). The experiment in a line: AUC; sedimentation velocity, isolated MBP-HJURP fragments at 5 µM, buffer HST300 (30 mM HEPES pH 7.5, 300 mM NaCl, 1 mM TCEP), 42,000 rpm, 20 °C (Supplementary Fig. 2b); both purified.

For the substance “MBP-HJURP^541–748 (from UniProt Q8NCD3 541-748) (domain or fragment)”, the binding result was “no binding (tested: 5 µM)”.
